Results reported in publication PMC4826273.
Results are given in words; binding and its absence hold for the method and conditions named. Some results given as binding are weak or reduced against the parent protein; the word gives no strength.

Amino acid sequences for entries named in this document (tags omitted). Residues count along the entry.
UniProt Q9JI71, residues 27-686: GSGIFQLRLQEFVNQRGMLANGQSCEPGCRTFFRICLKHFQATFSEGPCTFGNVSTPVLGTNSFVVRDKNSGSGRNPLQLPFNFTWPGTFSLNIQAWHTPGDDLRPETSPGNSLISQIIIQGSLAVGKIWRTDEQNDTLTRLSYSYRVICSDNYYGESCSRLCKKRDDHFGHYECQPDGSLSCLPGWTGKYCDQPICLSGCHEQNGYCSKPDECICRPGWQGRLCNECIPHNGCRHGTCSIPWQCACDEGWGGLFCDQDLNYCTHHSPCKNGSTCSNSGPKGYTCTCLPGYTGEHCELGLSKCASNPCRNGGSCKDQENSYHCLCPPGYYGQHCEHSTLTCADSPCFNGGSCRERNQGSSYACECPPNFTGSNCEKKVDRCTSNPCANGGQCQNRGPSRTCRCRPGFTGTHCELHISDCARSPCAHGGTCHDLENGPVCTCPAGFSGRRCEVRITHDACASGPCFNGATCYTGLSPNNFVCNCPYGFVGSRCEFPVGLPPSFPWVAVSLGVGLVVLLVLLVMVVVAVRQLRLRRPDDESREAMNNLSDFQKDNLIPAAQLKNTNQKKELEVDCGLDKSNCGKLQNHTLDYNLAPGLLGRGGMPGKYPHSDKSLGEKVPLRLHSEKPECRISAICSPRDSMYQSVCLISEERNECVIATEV
UniProt Q9QXX0, residues 34-1218: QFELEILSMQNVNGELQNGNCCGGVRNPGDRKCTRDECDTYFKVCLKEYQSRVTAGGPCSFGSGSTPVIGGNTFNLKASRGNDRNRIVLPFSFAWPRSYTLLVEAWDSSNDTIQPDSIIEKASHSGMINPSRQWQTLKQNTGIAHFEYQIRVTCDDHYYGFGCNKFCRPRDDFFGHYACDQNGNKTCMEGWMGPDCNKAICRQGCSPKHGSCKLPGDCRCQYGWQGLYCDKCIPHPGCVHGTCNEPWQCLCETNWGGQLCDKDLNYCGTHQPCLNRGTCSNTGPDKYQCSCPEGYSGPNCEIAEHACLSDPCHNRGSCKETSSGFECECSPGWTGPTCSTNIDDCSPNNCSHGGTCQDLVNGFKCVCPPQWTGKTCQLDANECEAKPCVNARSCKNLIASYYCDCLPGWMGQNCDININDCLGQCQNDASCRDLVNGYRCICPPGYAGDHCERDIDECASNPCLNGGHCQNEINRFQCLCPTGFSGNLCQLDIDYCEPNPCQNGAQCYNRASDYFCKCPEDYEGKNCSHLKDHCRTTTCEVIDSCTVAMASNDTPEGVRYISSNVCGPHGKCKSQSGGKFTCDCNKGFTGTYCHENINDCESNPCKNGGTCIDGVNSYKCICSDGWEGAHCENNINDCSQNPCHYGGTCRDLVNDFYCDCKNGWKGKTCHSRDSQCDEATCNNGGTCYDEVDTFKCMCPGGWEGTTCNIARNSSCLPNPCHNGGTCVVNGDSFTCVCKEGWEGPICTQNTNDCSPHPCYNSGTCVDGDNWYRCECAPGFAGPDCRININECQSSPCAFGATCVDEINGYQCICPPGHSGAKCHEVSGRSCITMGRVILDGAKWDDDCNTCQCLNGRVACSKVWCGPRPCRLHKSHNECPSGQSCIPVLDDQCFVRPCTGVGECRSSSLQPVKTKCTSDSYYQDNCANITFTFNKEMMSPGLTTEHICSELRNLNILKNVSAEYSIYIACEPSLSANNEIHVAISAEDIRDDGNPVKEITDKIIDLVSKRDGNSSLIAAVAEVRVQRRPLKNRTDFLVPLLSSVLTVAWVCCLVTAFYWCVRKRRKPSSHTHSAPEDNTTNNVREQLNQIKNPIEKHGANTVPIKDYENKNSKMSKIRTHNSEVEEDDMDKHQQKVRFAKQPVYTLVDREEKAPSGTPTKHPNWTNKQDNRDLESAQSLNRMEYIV
UniProt P46531, residues 411-526: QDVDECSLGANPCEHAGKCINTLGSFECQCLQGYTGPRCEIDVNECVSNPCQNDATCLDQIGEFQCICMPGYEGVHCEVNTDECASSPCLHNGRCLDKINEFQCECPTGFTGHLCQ

Columns and labels:
[1] = biological target: mDll-4 expressed on B16F10 cells (mouse (mDll-4 in legend and methods; the results text says human)) (UniProt Q9JI71); experiment: flow cytometry on cells; biotinylated hNotch1 fragments coupled to avidin-coated purple fluorescent beads (Spherotech), added to B16F10 cells expressing mDll-4 or mJagged1; analysed directly without removal of unbound beads; compared with a control protein; only the binder purified
[2] = biological target: mJagged1 expressed on B16F10 cells (mouse) (UniProt Q9QXX0); experiment: as above

For “human Notch1 EGF11-13, biotinylated (from UniProt P46531 411-526) (domain or fragment)”, the binding [1] was “binds” and the binding [2] was “binds”.
